Source: PubChem BioAssay AID445 (National Center for Advancing Translational Sciences (NCATS), 2006)
The list shows a part of the results. These are further read-outs of the screen, such as a control signal, another cell line or another target. No call is given for them. The list favours compounds with an active or inconclusive main result. Words in brackets tell the shape of the fitted curve; partial curves, single points and poor fits give uncertain potencies.

Experiment: IkB Signaling
Settings: ABC-DLBCL IkBa-CBG/CBR dual luciferase ratio (green luciferase fused to IkBa over red control in OCI-Ly3 lymphoma cells), 4 h
Method in brief: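 Luminescence ratio of IκBα-fused green versus native red beetle luciferase in OCI-Ly3 cells, 4 h post-doxycycline with compound; red signal alone, scaled from basal (0%) to zero light (-100%), flagged nonspecific or cytotoxic effects.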

[1] = measured here: control luc red channel unless noted
[2] = measured here: IkB-luc green channel
[3] = measured here: control luc red channel

COc1ccc(Br)c2c1-c1nc(NC(=O)c3ccccc3F)sc1C2
AC50 [1]: 0.0794 µM [falling, full curve]

COC(=O)c1ccccc1NC(=O)c1ccc(COc2cc(C)cc(C)c2)o1
AC50 [1]: 2.51 µM [rising, partial curve]

COc1ccc(CCCc2nnc(SCC(=O)Nc3cc(C)ccc3C)o2)cc1
AC50 [1]: 12.6 µM [falling, partial curve]

Cc1nc2ccc(S(=O)(=O)N(CC(=O)Nc3cccc(Cl)c3)Cc3ccccc3)cc2s1
AC50 [1]: 20 µM [falling, partial curve]

Cc1nn(CC(=O)NCc2ccc(N(C)C)cc2)c(=O)c2c(C)n(-c3ccc(Cl)cc3)nc12
AC50 [1]: 0.631 µM [falling, partial curve]

CCCCOc1ccc(CNC(=O)Cc2ccc(NC(=O)N3CCCCc4ccccc43)cc2)cc1
AC50 [1]: 25.1 µM [falling, partial curve]

CCn1c(=O)n(-c2ccc(F)cc2)c(=O)c2sc3ccccc3c21
AC50 [1]: 1.58 µM [rising, partial curve]

CCOC(=O)c1c(Nc2ccc(F)cc2)nnc(-c2ccccc2)c1-c1ccccc1
AC50 [1]: 10 µM [falling, partial curve]

Nc1c(NCCN2CCOCC2)c2ccccc2oc1=O
AC50 [1]: 5.01 µM [falling, full curve]

O=C(OCC(=O)N1CCN(C(=O)c2ccco2)CC1)c1cc(-c2ccccc2)nc2ccccc12
AC50 [1]: 12.6 µM [falling, partial curve]

COC(=O)c1sc2cccc(F)c2c1S(=O)(=O)Nc1ccc(N(C)C)cc1
AC50 [1]: 20 µM [falling, single point]

CCOC(=O)c1nc(S(C)(=O)=O)ncc1Cl
AC50 [2]: 31.6 µM [falling, single point] | AC50 [3]: 15.8 µM [falling, partial curve]

CCOc1ccc(NC(=O)CSc2nc3c(oc4ccccc43)c(=O)n2-c2cc(C)cc(C)c2)cc1
AC50 [1]: 39.8 µM [falling, single point]

Cc1ccc(C(=O)Nc2c(-c3ccccc3)nc3ccccn23)cc1
AC50 [1]: 7.94 µM [falling, partial curve]

Cc1nnc(N2CCC(C(=O)Nc3ccc(F)cc3)CC2)c2nn(-c3ccc(Cl)cc3)c(C)c12
AC50 [1]: 6.31 µM [falling, partial curve]

O=C(CNC(=O)c1ccco1)OCc1ccc(C(=O)Oc2ccccc2)cc1
AC50 [2]: 25.1 µM [rising, partial curve] | AC50 [3]: 31.6 µM [rising, single point]

CC(C)=CCc1c(O)cc(O)c2c1O[C@H](c1ccccc1)CC2=O
AC50 [1]: 0.158 µM [rising, partial curve]

Cc1cc2nn(-c3ccccc3)nc2cc1NC(=O)COc1ccc(Cl)cc1
AC50 [1]: 2 µM [rising, full curve]

Cc1cc(NC(=O)c2cc(-c3cccc(Cl)c3)on2)nn1Cc1ccc(Cl)cc1
AC50 [1]: 12.6 µM [falling, partial curve]

CCCN(CCC)C(=O)Cn1c(=O)n(-c2ccc(C)c(C)c2)c(=O)c2c3c(sc21)CCCCC3
AC50 [1]: 7.94 µM [falling, partial curve]

Cc1ncc(CO)c2c1Oc1nc(-c3ccc(F)cc3)nc(SCC(=O)N3CCCCC3)c1C2
AC50 [1]: 25.1 µM [falling, single point]

Cc1ccc(CN2C(=O)N(c3ccc(F)cc3)C(=O)C2CC(=O)Nc2ccc(Cl)cc2)cc1 (stereo not given)
AC50 [1]: 15.8 µM [falling, partial curve]

COC(=O)CN1C(=O)CSc2ccc(S(=O)(=O)Nc3cccc(Br)c3)cc21
AC50 [1]: 20 µM [falling, partial curve]

Cc1ccc(C)c(Cn2c3ccccc3c3cnn(CC(=O)NC4CCC(C)CC4)c(=O)c32)c1 (stereo not given)
AC50 [1]: 6.31 µM [falling, partial curve]

COc1ccc(-n2nc(C(=O)N3CCCC(C)C3)c3c4ccccc4n(C)c3c2=O)cc1Cl (stereo not given)
AC50 [1]: 31.6 µM [falling, single point]

COc1cc(OC)c(NC(=O)CCCn2nc(C)c3c(C)n(-c4ccccc4)nc3c2=O)cc1Cl
AC50 [1]: 10 µM [falling, partial curve]

O=C(NC1CC(=O)N(c2ccccc2)C1)c1ccc(S(=O)(=O)N2CCCCC2)cc1 (stereo not given)
AC50 [1]: 1 µM [falling, partial curve, poor fit]

Cc1nn2c(C)c(C(=O)NCc3ccco3)cnc2c1-c1ccccc1
AC50 [1]: 25.1 µM [falling, single point]

COCCCN1C(=O)c2[nH]nc(-c3ccccc3O)c2C1c1ccc(Cl)cc1 (stereo not given)
AC50 [1]: 12.6 µM [falling, partial curve]

Cn1c(=O)oc2cc(S(=O)(=O)N3CCCC(C(=O)NCc4ccc(F)cc4)C3)ccc21 (stereo not given)
AC50 [1]: 39.8 µM [falling, single point]

CC(=O)c1sc(Nc2ccccn2)nc1C
AC50 [1]: 31.6 µM [falling, single point] [measured here: IkB-luc green channel]

Cc1ccc(N2CCN(C(=O)c3cnc(N4CCCCC4)c4ccccc34)CC2)c(C)c1
AC50 [1]: 20 µM [falling, partial curve]

COc1cccc2c1C(=O)c1c(O)c3c(c(O)c1C2=O)C[C@](O)(C(=O)CO)C[C@H]3O[C@@H]1C[C@H](N)[C@H](O)[C@H](C)O1
AC50 [1]: 3.98 µM [falling, full curve]

COc1cccc(Cn2nnc3c(=O)[nH]c(C4CCN(C(=O)c5ccccc5Cl)CC4)nc32)c1
AC50 [1]: 39.8 µM [falling, partial curve]

O=C(NCc1ccccc1Br)c1cnc2sc(N3CCCCCC3)nn2c1=O
AC50 [1]: 39.8 µM [falling, single point]

Cc1ccc(C)c(CN2C(=O)c3ccccc3S(=O)(=O)c3ccc(C(=O)NCCCN4CCCC(C)C4)cc32)c1 (stereo not given)
AC50 [1]: 10 µM [falling, partial curve]

Cc1ccc(NC(=O)c2noc3c2CCCCC3)cc1C
AC50 [1]: 0.398 µM [falling, full curve]

Cc1sc2nc(C(C)C)nc(SCC(=O)NCc3ccco3)c2c1C
AC50 [1]: 7.94 µM [falling, partial curve]
